Taken from: PubChem BioAssay AID1259254 (NCATS, 2017)
The whole screen tested about 59,000 reagents; below is an unselected part. About 1,550 of them (2.6%) were called active. 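G2 share is only a proxy for re-replication; each gene was hit by three separate siRNAs, and active genes were retested.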 Entries without a mark were called inactive. The numbers tell different reagents against one gene apart. Further read-outs or replicates are left out here. Not given: the amount of reagent.

Test: 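Genome-wide screen for genes that prevent DNA re-replication in cancer cells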 (primary screen)
Cells: human HCT116 colorectal cancer cells
Reagents: single siRNA against human genes
Timing: 3 days
Measured: 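Nuclei stained with Hoechst and imaged; cell-cycle phase assigned by DNA content; G2 share scaled per plate, non-targeting siRNA 0%, GMNN siRNA 100%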
Reading the numbers: G2 robust z-score and G2 cells, % of GMNN control: higher = more G2 cells, more excess DNA replication
Rule for the call: 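An siRNA counts as active if its G2 robust z-score lies at least 5 MADs above the screen median; here such calls match roughly 38% of GMNN control or more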

{"Gene": "ZNF566-AS1", "reagent no.": 1, "G2 robust z-score": -0.26, "G2 cells, % of GMNN control": 1.14}
{"Gene": "ZNF566-AS1", "reagent no.": 2, "G2 robust z-score": -0.966, "G2 cells, % of GMNN control": -3.83}
{"Gene": "ZNF566-AS1", "reagent no.": 3, "G2 robust z-score": -0.925, "G2 cells, % of GMNN control": -3.54}
{"Gene": "CENPK", "reagent no.": 1, "G2 robust z-score": 0.778, "G2 cells, % of GMNN control": 8.44}
{"Gene": "CENPK", "reagent no.": 2, "G2 robust z-score": 0.196, "G2 cells, % of GMNN control": 4.35}
{"Gene": "CENPK", "reagent no.": 3, "G2 robust z-score": 0.203, "G2 cells, % of GMNN control": 4.39}
{"Gene": "WDR83", "reagent no.": 1, "G2 robust z-score": -0.299, "G2 cells, % of GMNN control": 0.863}
{"Gene": "WDR83", "reagent no.": 2, "G2 robust z-score": 1.97, "G2 cells, % of GMNN control": 16.8}
{"Gene": "WDR83", "reagent no.": 3, "G2 robust z-score": 0.157, "G2 cells, % of GMNN control": 4.07}
{"Gene": "USP53", "reagent no.": 1, "G2 robust z-score": -0.401, "G2 cells, % of GMNN control": 0.149}
{"Gene": "USP53", "reagent no.": 2, "G2 robust z-score": 0.0163, "G2 cells, % of GMNN control": 3.08}
{"Gene": "USP53", "reagent no.": 3, "G2 robust z-score": 2.79, "G2 cells, % of GMNN control": 22.6}
{"Gene": "NTMT2", "reagent no.": 1, "G2 robust z-score": -0.948, "G2 cells, % of GMNN control": -3.71}
{"Gene": "NTMT2", "reagent no.": 2, "G2 robust z-score": -0.321, "G2 cells, % of GMNN control": 0.711}
{"Gene": "NTMT2", "reagent no.": 3, "G2 robust z-score": 2.3, "G2 cells, % of GMNN control": 19.1}
{"Gene": "PRM2", "reagent no.": 1, "G2 robust z-score": -0.585, "G2 cells, % of GMNN control": -1.15}
{"Gene": "PRM2", "reagent no.": 2, "G2 robust z-score": -0.702, "G2 cells, % of GMNN control": -1.97}
{"Gene": "PRM2", "reagent no.": 3, "G2 robust z-score": -0.417, "G2 cells, % of GMNN control": 0.0313}
{"Gene": "SMCO4", "reagent no.": 1, "G2 robust z-score": 0.832, "G2 cells, % of GMNN control": 8.82}
{"Gene": "SMCO4", "reagent no.": 2, "G2 robust z-score": 0.763, "G2 cells, % of GMNN control": 8.34}
{"Gene": "SMCO4", "reagent no.": 3, "G2 robust z-score": -0.851, "G2 cells, % of GMNN control": -3.02}
{"Gene": "ODAD2", "reagent no.": 1, "G2 robust z-score": -0.517, "G2 cells, % of GMNN control": -0.67}
{"Gene": "ODAD2", "reagent no.": 2, "G2 robust z-score": 0.945, "G2 cells, % of GMNN control": 9.62}
{"Gene": "ODAD2", "reagent no.": 3, "G2 robust z-score": -0.634, "G2 cells, % of GMNN control": -1.49}
{"Gene": "ATP8B5P", "reagent no.": 1, "G2 robust z-score": -0.942, "G2 cells, % of GMNN control": -3.66}
{"Gene": "ATP8B5P", "reagent no.": 2, "G2 robust z-score": -0.991, "G2 cells, % of GMNN control": -4.01}
{"Gene": "ATP8B5P", "reagent no.": 3, "G2 robust z-score": 0.0526, "G2 cells, % of GMNN control": 3.34}
{"Gene": "GSTK1", "reagent no.": 1, "G2 robust z-score": 0.791, "G2 cells, % of GMNN control": 8.53}
{"Gene": "GSTK1", "reagent no.": 2, "G2 robust z-score": 0.401, "G2 cells, % of GMNN control": 5.79}
{"Gene": "GSTK1", "reagent no.": 3, "G2 robust z-score": 2.07, "G2 cells, % of GMNN control": 17.5}

An excerpt from the list above, as a working copy:
{"Gene": "USP53", "reagent no.": 2, "G2 robust z-score": 0.0163, "G2 cells, % of GMNN control": 3.08}
{"Gene": "USP53", "reagent no.": 3, "G2 robust z-score": 2.79, "G2 cells, % of GMNN control": 22.6}
{"Gene": "NTMT2", "reagent no.": 1, "G2 robust z-score": -0.948, "G2 cells, % of GMNN control": -3.71}
{"Gene": "NTMT2", "reagent no.": 2, "G2 robust z-score": -0.321, "G2 cells, % of GMNN control": 0.711}
